In article PMC10675785, “(L)-Monomethyl Tyrosine (Mmt): New Synthetic Strategy via Bulky ‘Forced-Traceless’ Regioselective Pd-Catalyzed C(sp^2)–H Activation” (Pharmaceuticals, 2023):
The match of structure and compound is tentative.

By UniProt entry, the sequences of proteins in these tests, tags left out.
UniProt P41146, whole entry: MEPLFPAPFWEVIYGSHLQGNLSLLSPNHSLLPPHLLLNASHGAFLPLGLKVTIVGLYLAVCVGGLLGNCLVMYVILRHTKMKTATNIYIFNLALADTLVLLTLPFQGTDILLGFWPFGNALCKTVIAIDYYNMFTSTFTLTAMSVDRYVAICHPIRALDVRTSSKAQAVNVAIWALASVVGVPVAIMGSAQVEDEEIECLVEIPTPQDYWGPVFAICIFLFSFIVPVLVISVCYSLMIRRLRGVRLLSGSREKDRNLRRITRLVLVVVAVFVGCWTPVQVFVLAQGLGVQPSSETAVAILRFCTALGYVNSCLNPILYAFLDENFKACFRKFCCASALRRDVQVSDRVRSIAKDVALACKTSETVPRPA

Target: human NOP receptor (Homo sapiens, UniProt P41146)
Experiment: Calcium mobilization assay in CHO cells stably coexpressing the NOP receptor and the Gαqi5 chimeric G protein
Details: CHOhNOP + Gαqi5 cells

Cc1cc(O)ccc1C[C@H](N)C(=O)NCC(=O)NCC(=O)N[C@@H](Cc1ccccc1)C(=O)N[C@H](C(=O)NCC(=O)N[C@@H](C)C(=O)N[C@@H](CCCNC(=N)N)C(=O)N[C@@H](CCCCN)C(=O)N[C@@H](CO)C(=O)N[C@@H](C)C(=O)N[C@@H](CCCNC(=N)N)C(=O)N[C@@H](CCCCN)C(N)=O)[C@@H](C)O
pEC50 (CL95%) (Fluo-4 AM, FlexStation II, 37 °C, four-parameter logistic fit, mean of 5 or at least 6 experiments in duplicate): 9.47 (8.92–10.01)
fold more potent than the Dmt derivative [Dmt^1]N/OFQ(1-13)-NH2 (calcium mobilization): 10 fold
